Test results taken from publication PMC4596477, “Interaction of Myosin Phosphatase Target Subunit (MYPT1) with Myosin Phosphatase-RhoA Interacting Protein (MRIP): A Role of Glutamic Acids in the Interaction” (PLoS ONE, 2015).
No constants are given. Whether binding was seen depends on the method and setting. Some binding calls cover weakened binding; strength is not graded here. One block for each molecule: values may come before it.

Amino acid sequences for entries named in this document (tags omitted). Residues count along the entry.
MRIP^545-878 (myosin phosphatase-RhoA interacting protein, residues 545–878; CC1-CC4) (Q6WCQ1, residues 545-878): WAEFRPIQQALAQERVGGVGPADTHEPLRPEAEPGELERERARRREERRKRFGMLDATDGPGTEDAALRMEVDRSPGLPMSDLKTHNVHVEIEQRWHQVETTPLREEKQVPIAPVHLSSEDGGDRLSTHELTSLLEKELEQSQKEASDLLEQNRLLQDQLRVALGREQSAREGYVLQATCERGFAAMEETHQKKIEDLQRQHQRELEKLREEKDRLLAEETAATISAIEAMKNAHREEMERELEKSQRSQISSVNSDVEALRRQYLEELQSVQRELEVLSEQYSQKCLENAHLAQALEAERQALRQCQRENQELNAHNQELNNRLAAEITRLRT
MRIP^724-878 (myosin phosphatase-RhoA interacting protein, residues 724–878; CC2-CC4) (Q6WCQ1, residues 724-878): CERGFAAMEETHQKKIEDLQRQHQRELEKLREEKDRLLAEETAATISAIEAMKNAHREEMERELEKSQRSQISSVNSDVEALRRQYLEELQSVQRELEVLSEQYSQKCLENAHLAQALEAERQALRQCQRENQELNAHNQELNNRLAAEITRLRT
MRIP^724-837 (myosin phosphatase-RhoA interacting protein, residues 724–837; CC2-CC3) (Q6WCQ1, residues 724-837): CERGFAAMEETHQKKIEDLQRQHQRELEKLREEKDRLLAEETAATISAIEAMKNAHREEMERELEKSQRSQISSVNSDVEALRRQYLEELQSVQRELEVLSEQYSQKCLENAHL

Columns and labels:
[1] = biological target: MRIP^724-878 (myosin phosphatase-RhoA interacting protein, residues 724–878; CC2-CC4) (UniProt Q6WCQ1); assay: AUC; sedimentation velocity of mixtures of an MRIP peptide with a MYPT1 peptide (equimolar, 14–67 μM each, with 3- and 9-fold dilutions; excess of peptide for R992D/R993D and E996K), g(s*) curves compared with the peptides alone; 50 mM potassium phosphate pH 7.4, 100 mM KCl, 1 mM DTT, 50,000 rpm, 20°C; both purified
[2] = biological target: MRIP^724-878 (myosin phosphatase-RhoA interacting protein, residues 724–878; CC2-CC4) (UniProt Q6WCQ1); assay: SPR; Biacore 3000, 25°C; MRIP^724-878 immobilised (1800 RU) by amine coupling on CM5, analytes CCLR (167–1 μM), CC (318–10 μM), LR (569–5 μM); reference surface G-actin; 50 mM potassium phosphate pH 7.4, 100 mM KCl; steady-state affinity fit; both purified
[3] = biological target: MRIP^724-837 (myosin phosphatase-RhoA interacting protein, residues 724–837; CC2-CC3) (UniProt Q6WCQ1); assay: AUC; sedimentation velocity of mixtures of an MRIP peptide with a MYPT1 peptide (equimolar, 14–67 μM each, with 3- and 9-fold dilutions; excess of peptide for R992D/R993D and E996K), g(s*) curves compared with the peptides alone; 50 mM potassium phosphate pH 7.4, 100 mM KCl, 1 mM DTT, 50,000 rpm, 20°C; both purified
[4] = biological target: MRIP^545-878 (myosin phosphatase-RhoA interacting protein, residues 545–878; CC1-CC4) (UniProt Q6WCQ1); assay: as above
[5] = biological target: MRIP^545-878 (myosin phosphatase-RhoA interacting protein, residues 545–878; CC1-CC4) (UniProt Q6WCQ1); assay: AUC; sedimentation velocity of each MRIP peptide alone, three-fold serial dilutions (MRIP^545-878 1.5–13.6 μM, MRIP^724-878 4.7–42.3 μM, MRIP^724-837 7.5–67.1 μM); 50 mM potassium phosphate pH 7.4, 100 mM KCl, 1 mM DTT, 50,000 rpm, 20°C; global fitting with SedAnal; constant of MRIP^724-837: dimer to monomers; both purified
[6] = biological target: MRIP^724-837 (myosin phosphatase-RhoA interacting protein, residues 724–837; CC2-CC3) (UniProt Q6WCQ1); assay: AUC; data not shown: g(s*) curve of the mixture of MRIP^724-837 and LR; both purified

binding [1]: binds
Molecule: LR mutant R992D/R993D (from UniProt O14974 991-1030) (peptide)

binding [1]: binds
Molecule: LR^997-1030 (from UniProt O14974 997-1030) (peptide)

binding [1]: binds
Molecule: LR^1001-1030 (from UniProt O14974 1001-1030) (peptide)

binding [1]: binds
Molecule: LR^1007-1028 (from UniProt O14974 1007-1028) (peptide)

The next lines start with the molecule.

Molecule: CC, putative coiled coil domain of MYPT1 (residues 924–990) (from UniProt O14974 924-990) (domain or fragment)
binding [1]: no binding (tested: 50 μM each)
binding [2]: no binding (tested: 318–10 μM)

Molecule: CCLR, MYPT1 peptide (residues 924–1030) containing a putative coiled coil domain (CC) and the leucine repeat region (LR) (from UniProt O14974 924-1030) (domain or fragment)
binding [1]: binds
binding [3]: binds
binding [4]: binds

Molecule: LR mutant E996K (from UniProt O14974 991-1030) (peptide)
binding [1]: binds

Molecule: LR mutant EtriA (glutamic acid residues 998–1000 replaced by alanine) (from UniProt O14974 991-1030) (peptide)
binding [1]: binds

Molecule: LR mutant EtriQ (glutamic acid residues 998–1000 replaced by glutamine) (from UniProt O14974 991-1030) (peptide)
binding [1]: binds

Molecule: MRIP^545-878 (myosin phosphatase-RhoA interacting protein, residues 545–878; CC1-CC4) (from UniProt Q6WCQ1 545-878) (domain or fragment)
binding [5]: no binding (tested: 1.5–13.6 μM)

B1: LR, leucine repeat region of MYPT1 (residues 991–1030) (peptide, UniProt O14974 991-1030, looked up)
chain: ERRISEMEEELKMLPDLKADNQRLKDENGALIRVISKLSK
notes: no result of its own is told for it; also called WT-LR; source: E. coli BL21 (DE3), purified (chitin beads, C8 reversed-phase HPLC)
binding [6]: binds
binding [1]: binds
